Some of the results follow.
biological target: T1, OsSMF1 (Oryza sativa, UniProt Q6ZLB0 1-436); assay: protein-binding microarray (RPBM); PBS, 2% BSA, 51.3 ng/ul salmon testes DNA, 50 uM zinc acetate, 200 nM TF, 25 C, 1 h; high values mean tight binding; settings: protein: recombinant; tags: N-terminal polyhistidine and DsRed monomer fusion (pET32a); chain copies: 2; label: CyDye5-dUTP incorporated in the synthesized complementary strand; 3' TTTTT single-stranded linker to array surface; dsDNA, one strand shown
T1 sequence: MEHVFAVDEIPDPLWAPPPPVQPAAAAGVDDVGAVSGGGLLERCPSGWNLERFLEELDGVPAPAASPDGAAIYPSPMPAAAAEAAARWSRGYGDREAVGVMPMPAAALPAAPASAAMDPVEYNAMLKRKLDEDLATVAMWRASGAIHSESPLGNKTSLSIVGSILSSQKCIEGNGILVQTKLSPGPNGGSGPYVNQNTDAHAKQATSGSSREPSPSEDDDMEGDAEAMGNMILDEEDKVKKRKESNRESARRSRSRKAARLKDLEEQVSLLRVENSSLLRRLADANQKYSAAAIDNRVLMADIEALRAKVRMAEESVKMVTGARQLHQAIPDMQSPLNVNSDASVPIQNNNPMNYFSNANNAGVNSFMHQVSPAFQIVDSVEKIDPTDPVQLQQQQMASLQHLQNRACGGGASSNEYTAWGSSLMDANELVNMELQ
How it was run: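 Binding signal here means per-feature fluorescence intensity in arbitrary units. The values were read on an Axon 4000B scanner after a custom Agilent array, double-stranded by primer extension with Cy5-dUTP, was incubated with 200 nM protein at 25 °C for 1 h in PBS with 2% BSA, salmon testes DNA and 50 µM zinc acetate, then washed. The proteins were transcription factors with an N-terminal polyhistidine tag and DsRed, expressed in E. coli BL21-CodonPlus and purified on Ni–NTA.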

Row | Sequence | binding signal
1 | GATTTGGGATTTTGTTATAGCGAGCGGACTGTCATCAATACGGAGTCACCTAGTGCAG | 3480 fluorescence intensity (a.u.)
2 | GGTGCTAATTGCGCGGGCTACCCAGCTAGTTCGATTGAATCGGAGTCACCTAGTGCAG | 33800 fluorescence intensity (a.u.)
3 | TCTCCCCGTTTGCTACTCCGGCGCCGGCGAGGCCACCTCGCGGAGTCACCTAGTGCAG | 3370 fluorescence intensity (a.u.)
4 | TCTAACAATATTGTTCTGTGTCAACAAAGATCTTGTCACTCGGAGTCACCTAGTGCAG | 4720 fluorescence intensity (a.u.)
5 | TCGAGCCCCTCTCCCTCCGCGAGCCGTGTGCAGCGGGCGACGGAGTCACCTAGTGCAG | 3430 fluorescence intensity (a.u.)
6 | ATCTCAAATTCCAGACTTCCAGAGGCGAGCACAGGAGGAGCGGAGTCACCTAGTGCAG | 15200 fluorescence intensity (a.u.)
7 | CCCCGAGGGAGAGGAATATACCGCGTGTGTGCGCGTGTGTCGGAGTCACCTAGTGCAG | 3300 fluorescence intensity (a.u.)
8 | TATCTAACCATGACATAACTAAAGTGTGACTTAGCAAAATCGGAGTCACCTAGTGCAG | 3560 fluorescence intensity (a.u.)
9 | CACATTGACTCAGCTGCCACATCGGATAAAATTGCAGTCACGGAGTCACCTAGTGCAG | 10400 fluorescence intensity (a.u.)
10 | GCTTCCATATTACACTACATCTCTTCCCTTCAATTACCCCCGGAGTCACCTAGTGCAG | 3350 fluorescence intensity (a.u.)
11 | CGAGGAGAGAGAGGTTGCAAGCGAGGATAAAGCGCCCGCACGGAGTCACCTAGTGCAG | 3160 fluorescence intensity (a.u.)
12 | TTCTCCACATCACAATGATACTGAACGTCAGCACTAAGATCGGAGTCACCTAGTGCAG | 6490 fluorescence intensity (a.u.)
13 | AGATCCCGAATTCGTGCCACGTGATCTGCCGTCGTGTATTCGGAGTCACCTAGTGCAG | 6050 fluorescence intensity (a.u.)
14 | CGCCCGAGAGCGAACGGCCGTCTGCCACGTCATTTTCGCCCGGAGTCACCTAGTGCAG | 38100 fluorescence intensity (a.u.)
15 | TTTGTAAAATTTCAGTGACACGGCTACAAATAGACGCACTCGGAGTCACCTAGTGCAG | 4580 fluorescence intensity (a.u.)
16 | TCCCCACGCCGCGCCGCCCGCCTGACCTCAGCCACGCACACGGAGTCACCTAGTGCAG | 3960 fluorescence intensity (a.u.)
17 | TCCATTTTCTGTTTTGATCTCCGATATGATCCGATACATCCGGAGTCACCTAGTGCAG | 3600 fluorescence intensity (a.u.)
18 | TGGTAAGTGTCCGCGTGTATATACGAGCGTTTGTGTATCACGGAGTCACCTAGTGCAG | 3660 fluorescence intensity (a.u.)
19 | GAGTTTATTCATGAACTCTCTGTCGATTCTGATGGTGAATCGGAGTCACCTAGTGCAG | 3680 fluorescence intensity (a.u.)
20 | TCTCATCCTCATCCTCATCCTGCAACAACCGTATTATATACGGAGTCACCTAGTGCAG | 15500 fluorescence intensity (a.u.)
21 | TCCGGCGGAGGGGAGGCTGCCGTCACTCCCGCCTGGCTCGCGGAGTCACCTAGTGCAG | 3350 fluorescence intensity (a.u.)

Shown comma-delimited: part of the list above
Row,Sequence,binding signal
5,TCGAGCCCCTCTCCCTCCGCGAGCCGTGTGCAGCGGGCGACGGAGTCACCTAGTGCAG,3430 fluorescence intensity (a.u.)
6,ATCTCAAATTCCAGACTTCCAGAGGCGAGCACAGGAGGAGCGGAGTCACCTAGTGCAG,15200 fluorescence intensity (a.u.)

Reformatted: entries from further up.
Row	Sequence	binding signal
10	GCTTCCATATTACACTACATCTCTTCCCTTCAATTACCCCCGGAGTCACCTAGTGCAG	3350 fluorescence intensity (a.u.)
11	CGAGGAGAGAGAGGTTGCAAGCGAGGATAAAGCGCCCGCACGGAGTCACCTAGTGCAG	3160 fluorescence intensity (a.u.)

Further results follow.

Row | Sequence | binding signal
22 | TACTCATAGGGGTAGCGCTTACGTGCGTGCGTTTAGGTTGCGGAGTCACCTAGTGCAG | 5760 fluorescence intensity (a.u.)
23 | ATCAACATCACCACAGTCCAGTCAAATTCAAATCCAGCCTCGGAGTCACCTAGTGCAG | 3170 fluorescence intensity (a.u.)
24 | TGCGGGGTTCTCACTCTGACCGTCTGACGTCACTCTGGAGCGGAGTCACCTAGTGCAG | 17000 fluorescence intensity (a.u.)
25 | GATCGAGCAGGAGCAGGTTGTTGGGTCGTCCACCTCACTCCGGAGTCACCTAGTGCAG | 3630 fluorescence intensity (a.u.)
26 | ATAAGGGCTTGTTCGATATTGCTTGTTCCCAAGCGGAACTCGGAGTCACCTAGTGCAG | 3150 fluorescence intensity (a.u.)
27 | CCTCCAATTTTCGAGCGTGGCCACGCGTATTTCAGTGGCTCGGAGTCACCTAGTGCAG | 5210 fluorescence intensity (a.u.)
28 | GCCGCCGCCGCCGTCTGCACCCGCGTCAGCGCTCCACAAACGGAGTCACCTAGTGCAG | 3440 fluorescence intensity (a.u.)
29 | AACTAGTAGCAATTTAGCATGACATGGTACTCGTCTACACCGGAGTCACCTAGTGCAG | 20400 fluorescence intensity (a.u.)
30 | GGCCCGTGGTTTGGGCCGGAAGGTGATGACGCCTCTGCCGCGGAGTCACCTAGTGCAG | 4270 fluorescence intensity (a.u.)
31 | AGTATTCCTGTGACACTGTCTTCAAATATTACGTCAGCGTCGGAGTCACCTAGTGCAG | 16400 fluorescence intensity (a.u.)
32 | TTTCTTCCATCCACGCGGCGGCTGTTTAACCCGTCGGCTCCGGAGTCACCTAGTGCAG | 4600 fluorescence intensity (a.u.)
33 | GTTAATTAATACTCTCCGTTTCATATTATAAGGCGTTTGACGGAGTCACCTAGTGCAG | 26400 fluorescence intensity (a.u.)
34 | AAGGACAACATCATCATCCATGACCATGCTGACAGCGCGCCGGAGTCACCTAGTGCAG | 4810 fluorescence intensity (a.u.)
35 | TGATTAATCCGTTATTACATGTTTCTTTCTTGTCGGCTACCGGAGTCACCTAGTGCAG | 3500 fluorescence intensity (a.u.)
36 | TACCTCGCATGCCACGCAGTCCCACGTACGCCTCTCGTGTCGGAGTCACCTAGTGCAG | 11600 fluorescence intensity (a.u.)
37 | AATTTTATGTCAGTCACAACTTACAACTTACGTAATTGTGCGGAGTCACCTAGTGCAG | 3220 fluorescence intensity (a.u.)
38 | GAGCGGTCGCCACGCCAGATTCTCTCTCTCTCTCTCTCCCCGGAGTCACCTAGTGCAG | 8980 fluorescence intensity (a.u.)
39 | CCCCGTCGTTGTCGCCACCTACTTCTACCTGCGCGGATTCCGGAGTCACCTAGTGCAG | 4830 fluorescence intensity (a.u.)
40 | GGAAGGAGATGATGACAATGTTGTGGAAGCTGTTCCACGCCGGAGTCACCTAGTGCAG | 4460 fluorescence intensity (a.u.)
41 | GTTCCACATGTCATCCTCTCCCTTTCTTCTTCCTCCCCTCCGGAGTCACCTAGTGCAG | 3930 fluorescence intensity (a.u.)
42 | AGATTGTTTACTCACACGATGTTTTGTTGTTCTTTGTCATCGGAGTCACCTAGTGCAG | 3700 fluorescence intensity (a.u.)
